Experimental data as given in publication PMC2982839.
Results are given in words; binding and its absence hold for the method and conditions named. Binding seen in cells or lysates may run through a third protein. Here binding means that the protein was enriched with, or labelled near, the bait; the list need not be complete.

Chains of the proteins cited; added tags and fusions are not shown.
UniProt Q6WKZ8: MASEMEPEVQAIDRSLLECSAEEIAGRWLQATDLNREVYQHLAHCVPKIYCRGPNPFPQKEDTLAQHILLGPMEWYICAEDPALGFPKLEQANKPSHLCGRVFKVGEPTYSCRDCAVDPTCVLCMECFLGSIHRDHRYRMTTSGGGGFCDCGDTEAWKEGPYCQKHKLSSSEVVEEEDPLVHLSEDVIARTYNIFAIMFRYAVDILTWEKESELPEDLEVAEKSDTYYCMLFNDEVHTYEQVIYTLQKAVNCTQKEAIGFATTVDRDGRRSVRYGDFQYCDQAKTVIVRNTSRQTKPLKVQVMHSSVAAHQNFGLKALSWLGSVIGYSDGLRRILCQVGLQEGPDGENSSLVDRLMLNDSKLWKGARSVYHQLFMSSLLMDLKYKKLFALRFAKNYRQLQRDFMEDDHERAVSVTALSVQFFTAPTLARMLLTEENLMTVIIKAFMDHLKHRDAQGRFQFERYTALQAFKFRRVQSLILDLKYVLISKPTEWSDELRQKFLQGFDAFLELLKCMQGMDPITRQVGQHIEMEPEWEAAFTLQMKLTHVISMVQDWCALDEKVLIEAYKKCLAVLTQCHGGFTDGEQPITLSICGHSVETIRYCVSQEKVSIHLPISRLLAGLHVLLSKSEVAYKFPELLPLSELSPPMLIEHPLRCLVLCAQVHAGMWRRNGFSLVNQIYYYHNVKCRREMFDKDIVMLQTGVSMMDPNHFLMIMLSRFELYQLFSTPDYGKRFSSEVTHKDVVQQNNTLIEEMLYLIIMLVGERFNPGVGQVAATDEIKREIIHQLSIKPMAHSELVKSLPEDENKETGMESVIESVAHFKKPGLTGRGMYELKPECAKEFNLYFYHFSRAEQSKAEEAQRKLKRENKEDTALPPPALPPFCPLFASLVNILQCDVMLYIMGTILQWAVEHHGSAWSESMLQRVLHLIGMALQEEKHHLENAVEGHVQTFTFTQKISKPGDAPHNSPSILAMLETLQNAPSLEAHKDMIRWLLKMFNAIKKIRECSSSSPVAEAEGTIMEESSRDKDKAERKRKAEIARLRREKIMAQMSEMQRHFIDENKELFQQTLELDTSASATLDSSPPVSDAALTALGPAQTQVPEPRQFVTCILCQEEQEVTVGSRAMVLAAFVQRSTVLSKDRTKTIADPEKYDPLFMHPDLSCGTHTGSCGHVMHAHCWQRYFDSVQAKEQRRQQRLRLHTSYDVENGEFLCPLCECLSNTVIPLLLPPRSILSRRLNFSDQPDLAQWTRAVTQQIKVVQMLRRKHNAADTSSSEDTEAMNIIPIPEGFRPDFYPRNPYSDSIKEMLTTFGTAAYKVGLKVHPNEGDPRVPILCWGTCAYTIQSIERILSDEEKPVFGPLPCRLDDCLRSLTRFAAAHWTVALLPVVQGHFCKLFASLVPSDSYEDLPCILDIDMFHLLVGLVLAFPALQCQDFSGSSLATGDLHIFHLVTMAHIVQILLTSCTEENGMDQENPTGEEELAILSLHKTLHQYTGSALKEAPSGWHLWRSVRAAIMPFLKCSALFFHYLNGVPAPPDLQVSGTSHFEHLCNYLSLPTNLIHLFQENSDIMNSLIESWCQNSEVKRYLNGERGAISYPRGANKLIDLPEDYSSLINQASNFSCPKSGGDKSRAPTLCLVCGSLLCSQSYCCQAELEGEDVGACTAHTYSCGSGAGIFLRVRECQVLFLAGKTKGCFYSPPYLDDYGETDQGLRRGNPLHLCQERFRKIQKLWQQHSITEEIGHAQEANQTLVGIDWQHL

Target: T1, Tex19.1 (mouse (endogenous in testis)) (UniProt Q99MV2)
T1 sequence: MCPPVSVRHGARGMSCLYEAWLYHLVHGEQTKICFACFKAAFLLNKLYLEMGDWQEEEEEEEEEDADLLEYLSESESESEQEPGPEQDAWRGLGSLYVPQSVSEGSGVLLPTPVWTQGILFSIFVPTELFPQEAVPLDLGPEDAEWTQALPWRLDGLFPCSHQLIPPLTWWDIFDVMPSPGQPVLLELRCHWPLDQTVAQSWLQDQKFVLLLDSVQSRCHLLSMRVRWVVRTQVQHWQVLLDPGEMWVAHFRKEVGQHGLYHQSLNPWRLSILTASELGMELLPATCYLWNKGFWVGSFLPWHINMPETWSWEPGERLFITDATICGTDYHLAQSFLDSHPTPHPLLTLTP
Assay: affinity purification with mass spectrometry; IP with affinity-purified anti-Tex19.1 antibody from S100 testicular extracts of postnatal day 20 mice; washes with 250 mM NaCl, 0.1% NP-40, 0.05% deoxycholate; SDS-PAGE, SYPRO Ruby, bands cut out and identified by mass spectrometry; Tex19.1-/- testes in parallel

binding: binds
Substance: Ubr2 (from UniProt Q6WKZ8 1-1755)
